Here are results for 1 molecule from patent US20210147572A1, “ANTIBODIES AND METHODS OF USE THEREOF” (AbeXXa Biologics, Inc., priority 2017, published 2021).

Protein sequences, listed by entry. Tags and fused reporters are not part of them. Lines headed by an entry give the natural chain unless they say otherwise; changes in a name come on top.
UniProt P13747: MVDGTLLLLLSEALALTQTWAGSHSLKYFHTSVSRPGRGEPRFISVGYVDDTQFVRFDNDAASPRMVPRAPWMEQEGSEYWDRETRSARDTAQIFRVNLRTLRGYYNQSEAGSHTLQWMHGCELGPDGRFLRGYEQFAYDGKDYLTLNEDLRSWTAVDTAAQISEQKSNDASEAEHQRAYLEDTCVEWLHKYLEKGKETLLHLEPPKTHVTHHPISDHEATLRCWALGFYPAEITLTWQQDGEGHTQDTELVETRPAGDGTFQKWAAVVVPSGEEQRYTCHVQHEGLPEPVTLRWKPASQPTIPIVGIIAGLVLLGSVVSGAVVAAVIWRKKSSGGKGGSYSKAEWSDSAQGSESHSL
UniProt P61769: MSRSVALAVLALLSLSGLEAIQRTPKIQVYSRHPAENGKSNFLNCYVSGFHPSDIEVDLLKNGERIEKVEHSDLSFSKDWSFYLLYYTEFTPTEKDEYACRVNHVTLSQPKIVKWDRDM

No constants are given. Whether binding was seen depends on the method and setting. Some entries that bind do so weakly or less than the wild type.

In the test the target is HLA-E molecules expressed in PDX lung tumor tissue (model LU5139) (human) (UniProt P13747+P61769). As to the kind of experiment: 4D12 affinity capture of HLA-E, peptide elution, LC/MS/MS.

As to GLADKVYFL [peptide GLADKVYFL (CAD protein)], the binding entry is listed as “binds”.
